Laboratory results published in paper PMC6733801.
No constants are given. Whether binding was seen depends on the method and setting. Binding seen in cells or lysates may run through a third protein. Some results given as binding are weak or reduced against the parent protein; the word gives no strength.

Sequences of proteins named here, by UniProt entry; tags and fusion partners are left off. Residues count along the entry.
UniProt Q9QUN7, residues 25-784: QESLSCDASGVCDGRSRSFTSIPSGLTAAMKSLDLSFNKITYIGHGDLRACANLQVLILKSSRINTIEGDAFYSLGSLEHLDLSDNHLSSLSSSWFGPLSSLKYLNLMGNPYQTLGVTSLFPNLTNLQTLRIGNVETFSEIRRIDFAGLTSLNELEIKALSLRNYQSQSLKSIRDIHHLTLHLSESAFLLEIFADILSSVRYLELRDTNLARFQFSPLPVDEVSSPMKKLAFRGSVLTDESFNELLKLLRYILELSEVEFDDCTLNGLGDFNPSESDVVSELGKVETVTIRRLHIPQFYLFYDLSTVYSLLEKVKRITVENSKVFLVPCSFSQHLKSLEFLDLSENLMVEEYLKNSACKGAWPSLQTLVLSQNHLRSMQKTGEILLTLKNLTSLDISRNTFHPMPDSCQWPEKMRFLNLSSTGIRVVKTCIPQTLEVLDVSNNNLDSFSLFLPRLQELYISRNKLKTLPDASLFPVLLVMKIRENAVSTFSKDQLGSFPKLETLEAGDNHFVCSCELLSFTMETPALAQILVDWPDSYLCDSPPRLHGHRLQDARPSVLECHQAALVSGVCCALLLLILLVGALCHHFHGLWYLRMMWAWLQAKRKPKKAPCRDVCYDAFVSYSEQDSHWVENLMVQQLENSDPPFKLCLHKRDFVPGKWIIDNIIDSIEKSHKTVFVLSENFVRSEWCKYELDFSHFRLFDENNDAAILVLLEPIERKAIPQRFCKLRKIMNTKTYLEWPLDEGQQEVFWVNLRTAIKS
UniProt Q08857: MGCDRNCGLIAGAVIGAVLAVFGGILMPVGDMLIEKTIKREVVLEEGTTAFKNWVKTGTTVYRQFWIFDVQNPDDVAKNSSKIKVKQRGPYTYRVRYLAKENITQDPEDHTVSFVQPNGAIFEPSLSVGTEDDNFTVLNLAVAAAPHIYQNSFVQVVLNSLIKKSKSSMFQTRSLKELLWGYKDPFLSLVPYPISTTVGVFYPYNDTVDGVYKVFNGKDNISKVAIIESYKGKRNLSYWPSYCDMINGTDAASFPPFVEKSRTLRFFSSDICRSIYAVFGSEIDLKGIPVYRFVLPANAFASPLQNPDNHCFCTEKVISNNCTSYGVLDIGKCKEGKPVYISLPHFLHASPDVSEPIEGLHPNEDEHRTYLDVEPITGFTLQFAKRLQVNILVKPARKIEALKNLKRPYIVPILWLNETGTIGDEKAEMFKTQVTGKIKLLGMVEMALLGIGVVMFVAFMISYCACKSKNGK

Tests used:
[1] = biological target: Toll-like receptor 2 (TLR2) (mouse (endogenous in peritoneal macrophages and RAW 264.7)) (UniProt Q9QUN7); test: FRET or BRET; acceptor photobleaching on fixed cells, confocal LSM-700; TLR2 antibody coupled to Cy3 (donor) and CD36 antibody coupled to Cy5 (acceptor); peritoneal macrophages or RAW 264.7 MPs stimulated with R-FSL1 (300 ng/mL) for 5 min, with or without MPE-001 (10^-7 M)
[2] = biological target: cluster of differentiation 36 receptor (CD36) (mouse (endogenous in peritoneal macrophages and RAW 264.7)) (UniProt Q08857); test: FRET or BRET; same experiment as a1: MPE-001 (10^-7 M) added to peritoneal macrophages or RAW 264.7 MPs stimulated with R-FSL1 (300 ng/mL) for 5 min; read-out is the loss of CD36-TLR2 energy transfer; only the binder purified

cluster of differentiation 36 receptor (CD36) (from UniProt Q08857 1-472)
binding [1]: binds

HWAYFK (D-Trp at 2, aza-Tyr at 4, D-Phe at 5) [CD36 azapeptide modulator [azaY4]-GHRP-6 (MPE-001)]
binding [2]: binds
